Drug screen on melanoma cell lines: apoptosis marker

First drug in all entries: pioglitazone, 10 µM, CCc1ccc(CCOc2ccc(CC3SC(=O)NC3=O)cc2)nc1 (stereo unspecified)

Drug key:
L-779450, 1 µM: Oc1cc(-c2nc(-c3ccccc3)[nH]c2-c2ccncc2)ccc1Cl
bexarotene, 10 µM: C=C(c1ccc(C(=O)O)cc1)c1cc2c(cc1C)C(C)(C)CCC2(C)C
vatalanib, 10 µM: Clc1ccc(Nc2nnc(Cc3ccncc3)c3ccccc23)cc1
fingolimod, 10 µM: CCCCCCCCc1ccc(CCC(N)(CO)CO)cc1
FH535, 5 µM: Cc1cc([N+](=O)[O-])ccc1NS(=O)(=O)c1cc(Cl)ccc1Cl
tamatinib, 2 µM: COc1cc(Nc2ncc(F)c(Nc3ccc4c(n3)NC(=O)C(C)(C)O4)n2)cc(OC)c1OC
VX-702, 2 µM: NC(=O)c1ccc(N(C(N)=O)c2c(F)cccc2F)nc1-c1ccc(F)cc1F
BI-78D3, 1 µM: O=c1[nH]nc(Sc2ncc([N+](=O)[O-])s2)n1-c1ccc2c(c1)OCCO2
embelin, 6 µM: CCCCCCCCCCCC1=C(O)C(=O)C=C(O)C1=O
MK-1775, 0.1 µM: C=CCn1c(=O)c2cnc(Nc3ccc(N4CCN(C)CC4)cc3)nc2n1-c1cccc(C(C)(C)O)n1
AS-252424, 5 µM: O=C1NC(=O)/C(=C/c2ccc(-c3ccc(F)cc3O)o2)S1
SNS-314, 0.004 µM: O=C(Nc1cccc(Cl)c1)Nc1ncc(CCNc2ncnc3ccsc23)s1
BMS-536924, 1 µM: Cc1cc(N2CCOCC2)cc2[nH]c(-c3c(NC[C@@H](O)c4cccc(Cl)c4)cc[nH]c3=O)nc12
tipifarnib, 0.05 µM: Cn1cncc1[C@@](N)(c1ccc(Cl)cc1)c1ccc2c(c1)c(-c1cccc(Cl)c1)cc(=O)n2C
crizotinib, 1 µM: C[C@@H](Oc1cc(-c2cnn(C3CCNCC3)c2)cnc1N)c1c(Cl)ccc(F)c1Cl
vincristine, 0.0005 µM: CC[C@]1(O)C[C@H]2CN(CCc3c([nH]c4ccccc34)[C@@](C(=O)OC)(c3cc4c(cc3OC)N(C=O)[C@H]3[C@@](O)(C(=O)OC)[C@H](OC(C)=O)[C@]5(CC)C=CCN6CC[C@]43[C@@H]65)C2)C1
CHIR-265, 0.4 µM: Cn1c(Nc2ccc(C(F)(F)F)cc2)nc2cc(Oc3ccnc(-c4ncc(C(F)(F)F)[nH]4)c3)ccc21
GW0742, 10 µM: Cc1cc(SCc2sc(-c3ccc(C(F)(F)F)c(F)c3)nc2C)ccc1OCC(=O)O
GSK650394, 0.8 µM: O=C(O)c1ccc(-c2c[nH]c3ncc(-c4ccccc4)cc23)cc1C1CCCC1
ruxolitinib, 5 µM: N#CC[C@H](C1CCCC1)n1cc(-c2ncnc3[nH]ccc23)cn1
nilotinib, 1 µM: Cc1cn(-c2cc(NC(=O)c3ccc(C)c(Nc4nccc(-c5cccnc5)n4)c3)cc(C(F)(F)F)c2)cn1
decitabine, 0.5 µM: Nc1ncn([C@H]2C[C@H](O)[C@@H](CO)O2)c(=O)n1
NVP-TAE684, 0.4 µM: COc1cc(N2CCC(N3CCN(C)CC3)CC2)ccc1Nc1ncc(Cl)c(Nc2ccccc2S(=O)(=O)C(C)C)n1
PD173074, 0.5 µM: CCN(CC)CCCCNc1ncc2cc(-c3cc(OC)cc(OC)c3)c(NC(=O)NC(C)(C)C)nc2n1
docetaxel, 0.0005 µM: CC(=O)O[C@@]12CO[C@@H]1C[C@H](O)[C@@]1(C)C(=O)[C@H](O)C3=C(C)[C@@H](OC(=O)[C@H](O)[C@@H](NC(=O)OC(C)(C)C)c4ccccc4)C[C@@](O)([C@@H](OC(=O)c4ccccc4)[C@H]21)C3(C)C
temozolomide, 10 µM: Cn1nnc2c(C(N)=O)ncn2c1=O
GW441756, 2 µM: Cn1cc(/C=C2\C(=O)Nc3cccnc32)c2ccccc21
etoposide, 0.1 µM: COc1cc([C@@H]2c3cc4c(cc3[C@@H](O[C@@H]3O[C@@H]5CO[C@@H](C)O[C@H]5[C@H](O)[C@H]3O)[C@H]3COC(=O)[C@H]23)OCO4)cc(OC)c1O
indole-3-carbinol, 4 µM: OCc1c[nH]c2ccccc12
vismodegib, 5 µM: CS(=O)(=O)c1ccc(C(=O)Nc2ccc(Cl)c(-c3ccccn3)c2)c(Cl)c1
STA-4783, 0.03 µM: CN(NC(=O)CC(=O)NN(C)C(=S)c1ccccc1)C(=S)c1ccccc1

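The test systems are human melanoma cell lines, treated with two drugs together for 72 h and then stained and imaged. Values are the share of nuclei positive for cleaved PARP as a percentage of the same share in the DMSO control: 100 is the control level, higher means more apoptosis. Concentrations were fixed for each drug; these are the higher of two levels. The file gives one value for each pair and line, without errors, so small differences may be noise. Basal and induced levels differ widely between cell lines.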
An unselected part of the screen is shown.

Results for MK-1775 are WM1716: 103; LOX IMVI: 170. Results for vincristine are WM1716: 801; LOX IMVI: 220. With docetaxel the screen read WM1716: 2120; LOX IMVI: 168. With indole-3-carbinol the screen read WM1716: 19.2; LOX IMVI: 134. With SNS-314 the screen read WM1716: 148; LOX IMVI: 133.

With STA-4783 the screen read WM1716: 89.3; LOX IMVI: 168. L-779450 gave WM1716: 200; LOX IMVI: 72.4. For GW441756 the values were WM1716: 25.5; LOX IMVI: 52.9. embelin gave WM1716: 102; LOX IMVI: 61.2. vatalanib gave WM1716: 183; LOX IMVI: 73.6.

For NVP-TAE684 the values were WM1716: 59.8; LOX IMVI: 99.0. Results for PD173074 are WM1716: 93.9; LOX IMVI: 90.9. With GSK650394 the screen read WM1716: 105; LOX IMVI: 91.6. With decitabine the screen read WM1716: 199; LOX IMVI: 62.3. Results for tamatinib are WM1716: 115; LOX IMVI: 305.

ruxolitinib gave WM1716: 132; LOX IMVI: 207. For fingolimod the values were WM1716: 12700; LOX IMVI: 134. Results for VX-702 are WM1716: 59.3; LOX IMVI: 50.9. nilotinib gave WM1716: 124; LOX IMVI: 448. bexarotene gave WM1716: 84.1; LOX IMVI: 58.2.

With CHIR-265 the screen read WM1716: 186; LOX IMVI: 59.7. With FH535 the screen read WM1716: 135; LOX IMVI: 219. With BMS-536924 the screen read WM1716: 169; LOX IMVI: 132. BI-78D3 gave WM1716: 43.4; LOX IMVI: 47.2. Results for GW0742 are WM1716: 102; LOX IMVI: 156.

For vismodegib the values were WM1716: 27.3; LOX IMVI: 111. With tipifarnib the screen read WM1716: 135; LOX IMVI: 139. AS-252424 gave WM1716: 101; LOX IMVI: 88.6. With temozolomide the screen read WM1716: 186; LOX IMVI: 112. For etoposide the values were WM1716: 28.5; LOX IMVI: 32.5.

For crizotinib the values were WM1716: 217; LOX IMVI: 138.

The first 3 entries again:

{"partner": "MK-1775", "WM1716": 103, "LOX IMVI": 170}
{"partner": "vincristine", "WM1716": 801, "LOX IMVI": 220}
{"partner": "docetaxel", "WM1716": 2120, "LOX IMVI": 168}

Values as published with doi:10.1371/journal.pone.0140310, rounded.